Laboratory results taken from PMC6465078 (Molecular pharmaceutics, 2018).

What was measured:
[1] = target: T1, OSTα/β (Homo sapiens, UniProt Q86UW1); test: Inhibition of OSTα/β-mediated DHEAS uptake in OSTα/β-overexpressing Flp-In 293; type: cell-based
T1 sequence (Q86UW1 1-340): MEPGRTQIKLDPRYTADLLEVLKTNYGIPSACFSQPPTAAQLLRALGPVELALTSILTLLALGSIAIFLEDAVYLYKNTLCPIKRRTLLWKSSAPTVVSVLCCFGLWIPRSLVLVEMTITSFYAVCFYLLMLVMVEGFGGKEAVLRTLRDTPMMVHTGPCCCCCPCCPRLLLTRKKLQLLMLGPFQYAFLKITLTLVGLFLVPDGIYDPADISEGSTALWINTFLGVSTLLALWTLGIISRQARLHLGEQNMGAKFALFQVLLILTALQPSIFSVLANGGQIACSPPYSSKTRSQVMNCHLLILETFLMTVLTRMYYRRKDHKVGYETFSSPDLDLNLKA
T1 sequence (Q86UW2 1-128 partner): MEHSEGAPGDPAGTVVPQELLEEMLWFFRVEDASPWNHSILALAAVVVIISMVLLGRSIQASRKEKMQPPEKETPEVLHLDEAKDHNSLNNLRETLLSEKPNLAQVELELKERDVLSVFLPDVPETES

[2] = cited from earlier work

| Inhibition of OSTα/β-mediated DHEAS uptake (screening) ([1]; Method 1 (10 min preincubation), test compound 100 µM, DHEAS 4 µM, 30 s uptake) | inhibition at 100 µM ([1]; Flp-In-293, read-out: Inhibition of OSTα/β-mediated DHEAS uptake (screening)) | Maximal inhibition of OSTα/β-mediated DHEAS uptake ([1]; Method 1, up to 200 µM inhibitor, DHEAS 4 µM) | Structure (SMILES) | Associated cases of DILI [2] |
| --- | --- | --- | --- | --- |
| decreased | – | – | CCCCc1oc2ccccc2c1C(=O)c1cc(I)c(OCCN(CC)CC)c(I)c1 [amiodarone] | more than 100 cases |
| – | 35 to 64% | less than 50% | CC(C)c1c(C(=O)Nc2ccccc2)c(-c2ccccc2)c(-c2ccc(F)cc2)n1CC[C@@H](O)C[C@@H](O)CC(=O)O [atorvastatin] | more than 100 cases |
